Article PMC6338668

Amino acid sequences for entries named in this document (tags omitted).
UniProt P08151: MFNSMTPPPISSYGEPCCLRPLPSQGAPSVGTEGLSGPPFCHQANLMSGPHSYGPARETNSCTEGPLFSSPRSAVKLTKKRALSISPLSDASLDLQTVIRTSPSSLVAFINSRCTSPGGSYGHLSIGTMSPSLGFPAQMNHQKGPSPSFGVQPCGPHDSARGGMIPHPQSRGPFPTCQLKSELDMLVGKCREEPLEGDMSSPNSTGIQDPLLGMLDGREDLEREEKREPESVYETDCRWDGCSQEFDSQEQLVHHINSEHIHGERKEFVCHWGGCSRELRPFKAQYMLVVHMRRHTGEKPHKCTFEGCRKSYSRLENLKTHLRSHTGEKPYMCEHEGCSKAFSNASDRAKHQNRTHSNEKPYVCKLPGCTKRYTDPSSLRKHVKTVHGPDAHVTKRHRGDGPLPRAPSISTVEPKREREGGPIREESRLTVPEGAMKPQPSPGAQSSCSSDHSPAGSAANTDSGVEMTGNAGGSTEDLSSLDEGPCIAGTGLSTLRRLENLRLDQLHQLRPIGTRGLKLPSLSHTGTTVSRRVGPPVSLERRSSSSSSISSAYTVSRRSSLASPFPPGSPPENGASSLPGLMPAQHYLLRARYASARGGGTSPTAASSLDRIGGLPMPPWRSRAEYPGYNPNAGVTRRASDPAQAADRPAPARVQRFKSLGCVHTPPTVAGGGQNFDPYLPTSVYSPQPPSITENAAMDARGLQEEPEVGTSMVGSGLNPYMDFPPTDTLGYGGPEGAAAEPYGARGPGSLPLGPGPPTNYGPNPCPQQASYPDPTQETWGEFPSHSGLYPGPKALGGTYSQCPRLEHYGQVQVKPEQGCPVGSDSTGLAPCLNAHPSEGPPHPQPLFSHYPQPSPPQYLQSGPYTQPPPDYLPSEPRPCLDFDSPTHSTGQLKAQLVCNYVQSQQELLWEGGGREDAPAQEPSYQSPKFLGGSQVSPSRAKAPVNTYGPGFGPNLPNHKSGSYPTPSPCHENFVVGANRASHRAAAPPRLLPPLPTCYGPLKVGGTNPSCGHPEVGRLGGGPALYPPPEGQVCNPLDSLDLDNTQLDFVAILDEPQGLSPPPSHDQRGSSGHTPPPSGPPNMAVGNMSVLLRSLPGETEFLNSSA
UniProt Q9BQA1: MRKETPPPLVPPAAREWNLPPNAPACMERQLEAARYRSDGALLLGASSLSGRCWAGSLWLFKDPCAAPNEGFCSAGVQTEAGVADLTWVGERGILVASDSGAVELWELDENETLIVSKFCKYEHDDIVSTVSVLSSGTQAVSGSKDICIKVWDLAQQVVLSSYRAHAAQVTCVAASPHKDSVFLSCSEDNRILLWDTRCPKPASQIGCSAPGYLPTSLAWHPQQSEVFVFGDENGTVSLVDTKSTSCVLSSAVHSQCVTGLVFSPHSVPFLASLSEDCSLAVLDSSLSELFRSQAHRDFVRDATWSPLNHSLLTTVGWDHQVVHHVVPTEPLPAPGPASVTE

Biological target: GLI1 with HA and FLAG tandem affinity tags (UniProt P08151)
Assay: affinity purification with mass spectrometry; tandem affinity purification of HA-FLAG-GLI1 from the cytoplasmic fraction of stable HEK293 cells: anti-FLAG M2 agarose, FLAG peptide elution, anti-HA agarose, HA peptide elution; SDS-PAGE, silver staining, bands sequenced by mass spectrometry

methylosome protein 50 (MEP50), endogenous in HEK293 cells (from UniProt Q9BQA1 1-342)
binding: binds

Results are given in words; binding and its absence hold for the method and conditions named. Binding seen in cells or lysates may run through a third protein. A yes stands for co-enrichment or nearness to the bait. Other partners may have been found.
